Source: paper PMC12594893
Results are given in words; binding and its absence hold for the method and conditions named. In cells and extracts the contact can be indirect. Some entries that bind do so weakly or less than the wild type.

Experiments:
[1] = target: T1, Ceramide synthase 6 (CERS6), endogenous in KYSE150 and KYSE450 cells (human (endogenous in KYSE150, KYSE450)) (UniProt Q6ZMG9); assay: co-IP; ESCC cells (KYSE150, KYSE450, CERS6-overexpressing KYSE70; also KYSE150 and KYSE450 after CERS6 knockout) lysed in 50 mM Tris pH 8.0, 150 mM NaCl, 0.5% NP-40; CERS6 antibody and protein A/G agarose beads overnight at 4 °C; Western blot
T1 sequence: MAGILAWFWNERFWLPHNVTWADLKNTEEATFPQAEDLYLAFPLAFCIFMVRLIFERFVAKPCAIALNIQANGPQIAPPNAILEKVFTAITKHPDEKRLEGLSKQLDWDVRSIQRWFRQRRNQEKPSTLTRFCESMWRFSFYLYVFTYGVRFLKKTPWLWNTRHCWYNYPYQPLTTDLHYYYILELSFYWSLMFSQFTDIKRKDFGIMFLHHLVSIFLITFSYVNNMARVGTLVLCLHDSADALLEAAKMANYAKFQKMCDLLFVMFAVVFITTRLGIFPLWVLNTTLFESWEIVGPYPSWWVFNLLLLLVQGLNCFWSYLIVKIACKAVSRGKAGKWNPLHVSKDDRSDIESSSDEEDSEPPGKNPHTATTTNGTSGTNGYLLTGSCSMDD

[2] = target: T2, CERS6 Homeobox-like (Hox) domain (1-127), truncated CERS6 (human) (UniProt Q6ZMG9); assay: co-IP; truncated CERS6 (Hox domain 1-127, TLC domain 128-384) and RPN1; cells and tags not stated
T2 sequence: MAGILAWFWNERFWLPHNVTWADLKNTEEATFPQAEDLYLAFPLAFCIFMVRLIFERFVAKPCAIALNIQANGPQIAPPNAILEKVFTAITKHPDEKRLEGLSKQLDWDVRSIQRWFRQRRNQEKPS

Row | binding [1] | binding [2] | Binder
1 | binds | – | Ribophorin I (RPN1), endogenous in ESCC cells (protein, UniProt P04843 24-607) ASSEAPPLINEDVKRTVDLSSHLAKVTAEVVLAHLGGGSTSRATSFLLALEPELEARLAHLGVQVKGEDEEENNLEVRETKIKGKSGRFFTVKLPVALDPGAKISVIVETVYTHVLHPYPTQITQSEKQFVVFEGNHYFYSPYPTKTQTMRVKLASRNVESYTKLGNPTRSEDLLDYGPFRDVPAYSQDTFKVHYENNSPFLTITSMTRVIEVSHWGNIAVEENVDLKHTGAVLKGPFSRYDYQRQPDSGISSIRSFKTILPAAAQDVYYRDEIGNVSTSHLLILDDSVEMEIRPRFPLFGGWKTHYIVGYNLPSYEYLYNLGDQYALKMRFVDHVFDEQVIDSLTVKIILPEGAKNIEIDSPYEISRAPDELHYTYLDTFGRPVIVAYKKNLVEQHIQDIVVHYTFNKVLMLQEPLLVVAAFYILFFTVIIYVRLDFSITKDPAAEARMKVACITEQVLTLVNKRIGLYRHFDETVNRYKQSRDISTLNSGKKSLETEHKALTSEIALLQSRLKTEGSDLCDRVSEMQKLDAQVKELVLKSAVEAERLVAGKLKKDTYIENEKLISGKRQELVTKIDHILDAL
2 | – | no binding | RPN1 as used in the co-immunoprecipitation with truncated CERS6 (protein, UniProt P04843 24-607) ASSEAPPLINEDVKRTVDLSSHLAKVTAEVVLAHLGGGSTSRATSFLLALEPELEARLAHLGVQVKGEDEEENNLEVRETKIKGKSGRFFTVKLPVALDPGAKISVIVETVYTHVLHPYPTQITQSEKQFVVFEGNHYFYSPYPTKTQTMRVKLASRNVESYTKLGNPTRSEDLLDYGPFRDVPAYSQDTFKVHYENNSPFLTITSMTRVIEVSHWGNIAVEENVDLKHTGAVLKGPFSRYDYQRQPDSGISSIRSFKTILPAAAQDVYYRDEIGNVSTSHLLILDDSVEMEIRPRFPLFGGWKTHYIVGYNLPSYEYLYNLGDQYALKMRFVDHVFDEQVIDSLTVKIILPEGAKNIEIDSPYEISRAPDELHYTYLDTFGRPVIVAYKKNLVEQHIQDIVVHYTFNKVLMLQEPLLVVAAFYILFFTVIIYVRLDFSITKDPAAEARMKVACITEQVLTLVNKRIGLYRHFDETVNRYKQSRDISTLNSGKKSLETEHKALTSEIALLQSRLKTEGSDLCDRVSEMQKLDAQVKELVLKSAVEAERLVAGKLKKDTYIENEKLISGKRQELVTKIDHILDAL
